PubChem BioAssay AID504791 – Drosophila RNAi Screening Center – 2011
Aim: 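Factors in Argonaute-based small RNA production and activity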 (primary screen). System: Drosophila S2-derived reporter cells. Knock-down reagent: long dsRNA against Drosophila genes, about 150-250 ng dsRNA per well (siRNA assay); about 80-120 ng (miRNA assay). Time to read-out: about 5 days (siRNA assay); about 4 days (miRNA assay). Conditions: copper sulfate induction of reporters: 25 µM (siRNA assay); 200 mM stated (miRNA assay), 1-2 days before reading. Detection: 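Per-well ratio of Renilla over firefly light, expressed relative to that plate's average ratio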. Units: stable assay Renilla, run 1 in luminescence; stable assay firefly, run 1 in luminescence. Rule for the call: 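a well was a first-pass pick when its plate-scaled ratio rose above 1.5 (siRNA assay) or 1.6 (miRNA assay), or dropped below 0.6; a gene counted only if two separate dsRNAs agreed on retest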.
In all, the deposit lists about 23,000 reagents; below is a random part of those that have a named target and a result. Of all reagents, 199 (0.86%) got an active call. 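Plate-scaled ratios behind the calls are not deposited; printed light signals are raw; many rows marked increased or decreased are still called inactive.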 Unmarked entries are inactive. The numbers tell different reagents against one gene apart. Reagent sequences are not shown. Not stated in the record: the direction of the score.

{"target": "DNAlig1", "dsRNA no.": 1, "stable assay Renilla, run 1": 8901, "stable assay firefly, run 1": 1.58e6}
{"target": "CG12241", "dsRNA no.": 1, "stable assay Renilla, run 1": 7640, "stable assay firefly, run 1": 4.31e5}
{"target": "ND-SGDH", "dsRNA no.": 1, "stable assay Renilla, run 1": 6472, "stable assay firefly, run 1": 4.41e5}
{"target": "Mvb12", "dsRNA no.": 1, "stable assay Renilla, run 1": 5868, "stable assay firefly, run 1": 4.60e5}
{"target": "fz2", "dsRNA no.": 1, "stable assay Renilla, run 1": 7247, "stable assay firefly, run 1": 4.51e5}
{"target": "fz2", "dsRNA no.": 2, "stable assay Renilla, run 1": 5240, "stable assay firefly, run 1": 4.81e5}
{"target": "fz2", "dsRNA no.": 3, "stable assay Renilla, run 1": 6966, "stable assay firefly, run 1": 4.66e5}
{"target": "CG14356", "dsRNA no.": 1, "stable assay Renilla, run 1": 6330, "stable assay firefly, run 1": 5.09e5}
{"target": "Arp2", "dsRNA no.": 1, "stable assay Renilla, run 1": 5015, "stable assay firefly, run 1": 4.55e5}
{"target": "CG6661", "dsRNA no.": 1, "stable siRNA reporter change": "reporter ratio raised past the hit cutoff", "stable assay Renilla, run 1": 28033, "stable assay firefly, run 1": 5.06e5}
{"target": "CG6867", "dsRNA no.": 1, "stable assay Renilla, run 1": 3508, "stable assay firefly, run 1": 3.44e5}
{"target": "CG5854", "dsRNA no.": 1, "stable assay Renilla, run 1": 6467, "stable assay firefly, run 1": 6.32e5}
